Experiment: general procedure: Fmoc solid-phase peptide synthesis; Rink amide resin
Settings: conjugation step

For DOTA-PEG5k-Lys-BN, the conjugation yield was “above 96%”.
